According to publication PMC7862700:
The list shows a part of the results. The source does not settle which construct or isoform was used.

Target: T1, ETV4 (UniProt P43268)
T1 sequence: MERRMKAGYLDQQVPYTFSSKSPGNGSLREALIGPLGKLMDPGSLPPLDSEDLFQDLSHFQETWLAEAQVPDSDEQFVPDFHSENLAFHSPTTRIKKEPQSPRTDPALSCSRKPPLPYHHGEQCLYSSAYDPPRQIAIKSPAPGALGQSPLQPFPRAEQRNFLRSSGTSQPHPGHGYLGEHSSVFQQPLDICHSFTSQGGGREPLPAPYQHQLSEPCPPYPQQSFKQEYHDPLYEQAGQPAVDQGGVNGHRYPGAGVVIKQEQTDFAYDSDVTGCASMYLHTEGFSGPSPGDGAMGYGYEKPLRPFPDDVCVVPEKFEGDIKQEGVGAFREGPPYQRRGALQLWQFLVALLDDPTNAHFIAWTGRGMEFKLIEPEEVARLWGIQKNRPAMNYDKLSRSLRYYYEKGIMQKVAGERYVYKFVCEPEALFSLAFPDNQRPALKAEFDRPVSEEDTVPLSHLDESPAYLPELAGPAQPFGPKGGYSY
Assay: DAPPL (digital affinity profiling via proximity ligation, sequencing)
Conditions: 10 mM Tris-HCl pH 7.5, 50 mM NaCl, 1 mM DTT, 4% glycerol, room temperature, 30 min; GST-TFs on glutathione beads, 16-mer random dsDNA library, 0.1% …; high values mean tight binding; double strand, one strand shown; scale: fold enrichment (6-mer frequency, TF over GST control)

Sequence | binding signal
ACAACT | 1.4
GGCTTA | 1.07
ACGCTT | 1.38
CCGTCA | 1.28
TGCACC | 1.28
TGCCAC | 1.21
ATCTTG | 1.32
TGCCTT | 1.4
CCCTAT | 1.34
CACCAC | 1.19
ATTTCG | 1.18
GTCTCC | 1.46
CTTAAA | 1.18
GGCTAT | 0.979
GTTCAC | 1.2
GATAAT | 1.03
CCATCA | 1.21
CTCCAG | 1.15
GTAATA | 1.23
CCTTGA | 1.13

2 records picked at random from those above, as already listed:
Sequence | binding signal
GTTCAC | 1.2
ACAACT | 1.4

Remaining list, next part:

Sequence | binding signal
AAGCAT | 1.11
GCGTCT | 1.06
TTTCAC | 1.37
AACCCT | 1.25
CCTGAC | 1.58
GTATCC | 1.8
CCCCGC | 1.13
ATTACT | 1.32
TGACGC | 1.16
CAACTG | 1.11
TATACA | 1.38
GCTCTT | 1.62
TCTTGG | 1.29
ACTCAC | 1.28
TCCGTC | 1.28
TAGCCT | 1.28
ACCTAT | 1.27
CCTCGA | 1.31
CTAGCG | 1.19
TTTCCA | 1.36
